# Experimental data taken from PubChem BioAssay AID540276 (National Center for Advancing Translational Sciences (NCATS), 2011).
# Several values for one entry are separate records, joined by “and”; a condition that tells them apart may be missing. Equal entries are not always repeated. The campaign covered roughly 300,000 compounds. About 5,400 (1.8%) were called active. The inconclusive results got no clear call from the source; some entries with a clear call stand among them for comparison. Calls come from the whole dose curve; tested in HEK293 cells. A potency beside an inconclusive call is a rough fit, not a confirmed value.
# Assay: qHTS for inhibitors of binding or entry into cells for Marburg Virus
# Settings: Marburg virus pseudotyped entry inhibition, cell reporter; series mostly up to 37.8 µM
# Potency is the fitted concentration of half-maximal effect.
row,SMILES,Potency
1,O=C(Nc1ccccc1)c1ccccc1NC(=O)c1ccccc1C(=O)O,"inconclusive: 3.16 µM [activator, partial curve, poor fit]"
2,CCC(C)[C@H](NC(=O)N1CCN(c2cccc(C(F)(F)F)c2)CC1)C(=O)OC (stereo partly specified),"inconclusive: 6.51 µM [inhibitor, single point]"
3,COc1cc2c(cc1OC)C(C1C(=O)CC(C)(C)CC1=O)N(C(=O)CCl)CC2 (stereo unspecified),"inconclusive: 10 µM [inhibitor, partial curve, poor fit]"
4,COc1ccc(/C=C/C(=O)c2ccccc2)cc1COc1ccccc1F,"inconclusive: 29.1 µM [inhibitor, single point]"
5,Cc1ccc(C(=O)NCc2ccc3c(c2)OCO3)o1,inactive
6,COc1ccccc1N1CCN(C(=O)c2cc3cc(F)ccc3[nH]2)CC1,"inconclusive: 35.5 µM [inhibitor, single point]"
7,CN(c1cccc(NC(=O)CN(c2cccc(Cl)c2)S(=O)(=O)c2ccc(Cl)cc2)c1)S(C)(=O)=O,"inconclusive: 20 µM [inhibitor, single point]"
8,CC(C)(C)C1CCc2c(sc(NC(=O)c3cc(-c4ccc(F)cc4)on3)c2C#N)C1 (stereo unspecified),"inconclusive: 5.01 µM [activator, single point]"
9,NC(Cc1ccc(O)cc1)C(=O)NN=Cc1ccc(N(CCCl)CCCl)cc1 (stereo unspecified),active: 1.26 µM
10,COc1ccc(C(=O)N2CCN(C3CCC(c4ccccc4)CC3)CC2)cc1OC (stereo unspecified),"inconclusive: 14.6 µM [inhibitor, single point]"
11,N#CCC(=N)N1CCN(c2ccccc2)CC1,"inconclusive: 22.4 µM [inhibitor, partial curve, poor fit]"
12,C=CCN1C(c2ccc(Br)cc2)=CS/C1=C(/C#N)c1nnc(N2CCOCC2)n1-c1ccccc1,"inconclusive: 35.5 µM [inhibitor, single point]"
13,COc1ccccc1NC(=O)CSCC(=O)N1c2ccccc2CCc2ccccc21,"inconclusive: 16.4 µM [inhibitor, partial curve, poor fit]"
14,NNc1ccc2nnc(C(F)(F)C(F)(F)C(F)(F)F)n2n1,"inconclusive: 11.2 µM [inhibitor, partial curve, poor fit]"
15,Cc1ccc(Cl)cc1NC(=S)NCCCSC1CCCCC1,"inconclusive: 12.6 µM [inhibitor, partial curve, poor fit]"
16,O=C(O)/C=C/C(=O)Nc1ccccc1SC(F)(F)C(F)(F)C(F)(F)F,inactive
17,CC1CCN(Cc2csc(N)n2)CC1,"inconclusive: 5.62 µM [activator, single point]"
18,Cc1cc(C)nc(NC(=S)NC(=O)c2ccccc2)n1,inactive
19,O=C(NCc1cn(-c2ccccc2)nc1-c1ccccc1)c1cccc([N+](=O)[O-])c1,inactive
20,CC(C)(C)C(=O)NC(=S)Nc1ccc(Cl)c(C(=O)O)c1,"inconclusive: 0.562 µM [inhibitor, full curve, poor fit]"
21,COc1cc(NC(=O)C2CCC(CNc3c(N4CCC(C)CC4)c(=O)c3=O)CC2)cc(OC)c1 (stereo unspecified),"inconclusive: 35.5 µM [inhibitor, single point]"
22,Cc1cc(C)n(-c2nc3ccccc3c(=O)n2OCC(=O)Nc2c(C)cccc2C)n1,"inconclusive: 35.5 µM [inhibitor, single point]"

row,SMILES,Potency
1,Cc1cc(C)n(-c2cc(C(C)(C)C)nc3c(-c4ccccc4)cnn23)n1,"inconclusive: 1.58 µM [activator, partial curve, poor fit]"
2,COc1ccccc1CCNC(=O)c1cc(-c2ccncc2)nc2ccc(Br)cc12,"inconclusive: 3.98 µM [inhibitor, full curve]"
3,CCOC(=O)Cn1cnc2c(nnn2-c2ccc(OC)cc2)c1=O,inactive
4,CC(C)(C)c1csc(NC(=O)c2ccc3nccnc3c2)n1,"inconclusive: 1 µM [activator, partial curve, poor fit]"
5,CC(=O)c1c(C)[nH]c(C(=O)NCc2cccc(Cl)c2)c1C,inactive
6,Nc1nonc1-c1nc2ccccc2n1CC(=O)Nc1cccc(C(F)(F)F)c1,"inconclusive: 35.5 µM [inhibitor, single point]"
7,CCn1cc(C(=O)OCC(=O)c2cc(C)n(-c3ccccc3)c2C)c(=O)c2ccc(C)nc21,"inconclusive: 14.1 µM [activator, single point]"
8,CN(C)c1cccc(C(=O)Nc2ccc(N3CCOCC3)cc2)c1,"inconclusive: 16.4 µM [activator, single point]"
9,CC(C)N(C)C1CCN(C(=O)Nc2ccc(Cl)cc2)CC1,inactive
10,Cc1cc([N+](=O)[O-])nn1CC(=O)NCCc1c[nH]c2ccccc12,"inconclusive: 5.62 µM [activator, single point]"
11,CCOC(=O)c1ccccc1NC(=S)N1CCCCC1,"inconclusive: 1.26 µM [activator, single point]"
12,COc1ccc(C(c2nnnn2C2CCCCC2)N2CCN(c3ccc(OC)cc3)CC2)cc1 (stereo unspecified),"inconclusive: 25.1 µM [inhibitor, single point]"
13,CC(=O)Nc1ccc(OCC(O)CN2CCN(c3cc(Cl)ccc3C)CC2)cc1 (stereo unspecified),"inconclusive: 29.1 µM [inhibitor, single point]"
14,CSc1ccccc1NC(=O)c1ccc(Br)o1,inactive
16,Cc1ccc2cc(CCNC(=O)c3ccco3)c(=O)[nH]c2c1C,"inconclusive: 0.517 µM [activator, partial curve, poor fit]"
17,CCOC(=O)N1CCN(Cc2nc3cc(NC(=O)CC(C)C)ccc3n2C(C)C)CC1,"inconclusive: 25.1 µM [inhibitor, partial curve, poor fit]"
18,CCOC(=O)c1sc2nc3n(c(=O)c2c1C)CCC3,inactive
19,CC(Sc1nc2cc(Cl)ccc2s1)C(=O)Nc1ccc2c(c1)OCO2 (stereo unspecified),"inconclusive: 1.12 µM [inhibitor, single point]"
20,CCOC(=O)NC(N(O)c1cccc(Cl)c1)C(Cl)(Cl)Cl (stereo unspecified),inactive
21,CCCNCCC(c1ccco1)c1ccccc1OC (stereo unspecified),"inconclusive: 14.6 µM [inhibitor, partial curve, poor fit]"
22,COc1ccc(CCNC(=O)c2cc(-c3ccc(C)c(C)c3O)n[nH]2)cc1OC,"inconclusive: 14.1 µM [inhibitor, partial curve, poor fit]"

# Copied from the list:
# For Potency, CCOC(=O)NC(N(O)c1cccc(Cl)c1)C(Cl)(Cl)Cl (stereo unspecified) is listed with inactive
# For Potency, NC(Cc1ccc(O)cc1)C(=O)NN=Cc1ccc(N(CCCl)CCCl)cc1 (stereo unspecified) is listed with active: 1.26 µM
# For Potency, N#CCC(=N)N1CCN(c2ccccc2)CC1 is listed with inconclusive: 22.4 µM [inhibitor, partial curve, poor fit]
# For Potency, C=CCN1C(c2ccc(Br)cc2)=CS/C1=C(/C#N)c1nnc(N2CCOCC2)n1-c1ccccc1 is listed with inconclusive: 35.5 µM [inhibitor, single point]
# For Potency, CCOC(=O)c1ccccc1NC(=S)N1CCCCC1 is listed with inconclusive: 1.26 µM [activator, single point]

# More structures follow.

row,SMILES,Potency
1,COc1cc(/C=N/O)ccc1Oc1ccc([N+](=O)[O-])cc1[N+](=O)[O-],"inconclusive: 32.6 µM [inhibitor, single point]"
2,CC(=O)Nc1ccc(C(=O)N/N=C(\C)CC(=O)Nc2ccc(OCc3ccccc3)cc2)cc1,"inconclusive: 3.55 µM [inhibitor, partial curve, poor fit]"
3,Cc1noc(C)c1S(=O)(=O)N(CC(=O)Nc1ccc(C(F)(F)F)cc1)c1ccc(C(C)C)cc1,"inconclusive: 35.5 µM [inhibitor, single point]"
4,Cc1cc[n+](-c2[nH]c(=O)sc2/C=N/N=C(\[O-])c2ccccc2)cc1C,inactive
5,CCOc1ccc(/C=C/c2nc(C#N)c(NCc3ccc(OC)cc3)o2)cc1,inactive
6,COc1cc2nc(=S)n3[nH]c(COc4ccccc4C)nc3c2cc1OC,inactive
7,Clc1ccccc1CNCCCSc1nnnn1-c1ccccc1,"inconclusive: 1.26 µM [inhibitor, partial curve, poor fit]"
8,Cn1c(SCc2cccc([N+](=O)[O-])c2)nc2c(c1=O)SCC2,"inconclusive: 3.98 µM [inhibitor, full curve]"
9,COc1ccc(Nc2nc(N)c([N+](=O)[O-])c(NCCO)n2)cc1,"inconclusive: 0.562 µM [activator, partial curve, poor fit]"
10,COc1cc(S(=O)(=O)Nc2ccccc2)ccc1NC=O,"inconclusive: 6.51 µM [activator, partial curve, poor fit]"
11,CCCNC(=O)c1nnsc1S(=O)(=O)c1ccc(Cl)cc1,"inconclusive: 5.01 µM [inhibitor, full curve, poor fit]"
12,Cc1cccc(CN(C(=S)Nc2c(C)cccc2C)c2cccnc2)c1,"inconclusive: 0.562 µM [inhibitor, single point]"
13,O=C(O)C1OC(Oc2cc3oc(-c4ccccc4)cc(=O)c3c(O)c2O)C(O)C(O)C1O (stereo unspecified),"inconclusive: 9.2 µM [inhibitor, partial curve, poor fit]"
14,COC(=O)c1c(C)oc(C)c1S(=O)(=O)NCC1CC1,inactive
15,C/C(N)=C(/C#N)C(=O)COC(=O)c1cccc(O)c1,"inconclusive: 8.91 µM [activator, partial curve]"
16,O=C(c1ccco1)N1CCc2[nH]nc(-c3ccc(Cl)cc3)c2C1,inactive
17,Cn1ccnc1SCc1cn2cc(Br)ccc2n1,active: 6.31 µM
18,CCN(C(=O)COC(=O)/C(C#N)=C/c1ccc(OC)cc1)C1CCS(=O)(=O)C1 (stereo unspecified),inactive
19,CCOc1ccc(CN2C(=O)c3ccccc3Sc3ccc(C(=O)N4CCC5(CC4)OCCO5)cc32)cc1,"inconclusive: 35.5 µM [inhibitor, single point]"
20,C=CCOC(=O)C(C(C)=O)[C@@H](NC(=O)OC)c1cccc(C(F)(F)F)c1 (stereo partly specified),"inconclusive: 0.266 µM [activator, partial curve, poor fit]"
21,Cc1ccccc1NC(=O)c1ccc2c(c1)CCN2S(C)(=O)=O,inactive
22,O=C(c1ccnc(Cl)c1)N1CCCC(N2CCN(c3ccccc3F)CC2)C1 (stereo unspecified),"inconclusive: 0.631 µM [inhibitor, full curve, poor fit]"
